Values quoted from earlier work, collected in patent publication US7485688B2, “Water and oil producing composition” (priority 2004, dated 2009).
Some of these results come from one statement about several compounds together. For at least one compound, name, drawing or mass did not settle the structure.

System: rats or mice
Settings: acute oral toxicity in rats or mice

Row | SMILES | LD50
1 | CC(C)(N=NC(C)(C)C1=NCCN1)C1=NCCN1 [2,2′-azobis[2-(2-imidazolin-2-yl)propane]] | ≥ 2000 mg/kg
2 | COC(=O)C(C)(C)N=NC(C)(C)C(=O)OC [dimethyl azobisisobutyrate] | ≥ 2000 mg/kg
